Laboratory results reported in PubChem BioAssay AID540256 (National Center for Advancing Translational Sciences (NCATS), 2011).
Among all 300,000 compounds or so, about 3,700 (1.2%) were called active. This list was built around the results that the source calls inconclusive (neither active nor inactive); the mix of calls is not that of the screen. The call rests on the fitted dose curve; tested in HEK293 cells. A potency beside an inconclusive call is a rough fit, not a confirmed value.
Potency means the concentration at half of the fitted maximal effect.

Test: qHTS for Inhibitors of binding or entry into cells for Lassa Virus; further: nearly all actives have a fitted effect of over 50% in size
Details: Lassa virus pseudotype entry inhibition, cell reporter; series mostly up to 37.9 µM
For `COCCNC(=S)N(Cc1cccs1)Cc1cc2cccc(C)c2[nH]c1=O`, the Potency was inconclusive: 15.8 µM [inhibitor, partial curve, poor fit].
With `CCCCCc1cc(O)c2c(C)cc(=O)oc2c1` the Potency was inconclusive: 23.1 µM [inhibitor, single point].
With `COCCN1C(=O)N[C@@H](CCc2ccccc2)[C@@H](C(=O)OC)[C@H]1C` the Potency was inconclusive: 2.11 µM [activator, partial curve, poor fit].
In the case of `CN(C)c1ccc(CNC(=O)CCCN2C(=O)CCn3nc(-c4cn(C)c5ccccc45)cc32)cc1`, the Potency is reported as “inactive”.
With `Cc1cc(O)cc(O)c1-c1onc(C(F)(F)F)c1-c1cscn1` the Potency was “inactive”.
With `O=C(CN(Cc1ccc(Cl)c(Cl)c1)S(=O)(=O)c1ccccc1)N/N=C\c1ccc2c(c1)OCO2` the Potency was inconclusive: 11.2 µM [inhibitor, partial curve, poor fit].
In the case of `Cc1cc(NC(=O)CSc2nnc(-c3ccco3)n2Cc2ccco2)no1`, the Potency is reported as “inactive”.
For `O=C(Nc1ccc(CN2CCOCC2)cc1)c1ccco1`, the Potency was inconclusive: 11.2 µM [inhibitor, partial curve, poor fit].
For `O=C(Nc1ccc(-c2nc3ncccc3o2)cc1)c1ccc(Br)o1`, the Potency was inconclusive: 0.891 µM [activator, single point].
In the case of `COc1ccc(-c2nsc(NC(=O)c3oc4ccccc4c3C)n2)cc1`, the Potency is reported as inconclusive: 35.5 µM [activator, single point].
In the case of `CCn1cc(C(=O)N2CCN(c3cccc(C)c3)C(C)C2)c(=O)c2cc(S(=O)(=O)N3CCOCC3)ccc21` (centres undefined), the Potency is reported as “inactive”.
In the case of `COc1ccc2cc3cc(C(=O)NCCN4CCN(c5ccccc5F)CC4)oc3nc2c1`, the Potency is reported as inconclusive: 0.282 µM [inhibitor, full curve, poor fit].
With `CC(C1CC1)N(Cc1ccccc1)C(=S)Nc1ccccc1` (centres undefined) the Potency was inconclusive: 35.5 µM [inhibitor, single point].
In the case of `COc1ccc(NC(=O)Nc2cc(F)ccc2C)cc1`, the Potency is reported as inconclusive: 35.5 µM [inhibitor, single point].
For `Cc1ccc(-n2nnnc2CCl)cc1`, the Potency was inconclusive: 11.2 µM [inhibitor, partial curve, poor fit].
For `c1ccc(Nc2cccc(Nc3ccccc3)c2)cc1`, the Potency was inconclusive: 35.5 µM [inhibitor, single point].
In the case of `C=CCOn1c(C)c(C(C)=O)c2c3no[n+]([O-])c3ccc21`, the Potency is reported as “inactive”.
For `O=C(Nc1cc(S(=O)(=O)N2CCCCC2)ccc1Cl)C1=NN(c2ccccc2)C(=O)CC1`, the Potency was inconclusive: 11.2 µM [inhibitor, single point].
In the case of `Cc1cc(NC(=O)Cn2cc([N+](=O)[O-])cn2)n(Cc2ccc(F)cc2)n1`, the Potency is reported as “inactive”.
For `CC(NC(=O)c1noc2c1CCCCC2)c1ccccc1` (centres undefined), the Potency was “inactive”.
For `COc1ccccc1C(=O)NNC(=O)CCN1C(=O)/C(=C\c2ccccc2)SC1=S`, the Potency was inconclusive: 1.26 µM [inhibitor, single point].
In the case of `CCOc1ccccc1OCC(=O)Nc1nnc(COC)s1`, the Potency is reported as “inactive”.
With `CCNc1nc(SCC(N)=O)nc2sc3c(c12)CCN(C)C3` the Potency was “inactive”.
In the case of `COc1ccc(CCN2C(=O)N(c3ccc(OC)cc3)C(=O)C2CC(=O)Nc2ccccc2)cc1` (centres undefined), the Potency is reported as inconclusive: 35.5 µM [inhibitor, single point].
For `Cc1ccc(C)c(Nc2nc3ccccc3[nH]2)c1`, the Potency was “inactive”.
For `Cc1ccc(S(=O)(=O)c2c(COC(=O)c3ccccc3Cl)c(-c3ccccc3)nn2C)cc1`, the Potency was “inactive”.
With `CC1CCN(C(NC(=O)c2ccco2)C(=O)c2ccccc2)CC1` (centres undefined) the Potency was inconclusive: 29.1 µM [activator, single point].
With `CCCCCN(C(=O)CCC(=O)OCC(=O)c1c(C)cc(C)cc1C)c1c(N)n(CCCC)c(=O)[nH]c1=O` the Potency was inconclusive: 20 µM [inhibitor, single point].
With `CCC(=O)N1CCN(c2ccc(NC(=O)c3ccc([N+](=O)[O-])o3)cc2)CC1` the Potency was inconclusive: 10 µM [inhibitor, partial curve, poor fit].
With `Cc1cc(C)n(-c2ccccc2C#N)n1` the Potency was inconclusive: 6.31 µM [activator, full curve, poor fit].
For `COC(=O)C1=C(C)NC2=C(C(=O)CC(C)(C)C2)C1c1cnn(C)c1C` (centres undefined), the Potency was inconclusive: 6.31 µM [activator, single point].
For `Cc1ccc(S(=O)(=O)N(C(=O)c2ccncc2)c2ccc(OC(=O)c3ccncc3)c3ccccc23)cc1`, the Potency was inconclusive: 16.4 µM [inhibitor, partial curve, poor fit].
For `O=c1cc(-c2ccc(O)c(O)c2)oc2ccc3ccccc3c12`, the Potency was inconclusive: 0.891 µM [inhibitor, full curve, poor fit].
In the case of `CCOc1ccc(CNC(=O)c2ccc(NC(=O)N3CCSc4ncccc43)cc2)cc1`, the Potency is reported as “inactive”.
In the case of `COc1ccc(CNC(=O)c2nn(-c3ccccc3)cc2OC)cc1`, the Potency is reported as inconclusive: 20 µM [inhibitor, partial curve, poor fit].
For `COc1ccc(C2=C(C=C(C#N)C#N)C(c3ccccc3C)c3ccccc3O2)cc1OC` (centres undefined), the Potency was inconclusive: 12.6 µM [inhibitor, partial curve].
In the case of `COc1cccc(OCC(=O)N(C)Cc2nc(-c3cccc(C)c3)no2)c1`, the Potency is reported as inconclusive: 20 µM [inhibitor, single point].
With `Cc1cc2nccc(-c3ccncc3)n2n1` the Potency was “inactive”.
For `COc1cc2c(cc1OC)C(c1ccc(Cl)cc1)N(c1cccc(C#N)c1)C(=O)C2` (centres undefined), the Potency was inconclusive: 8.91 µM [inhibitor, partial curve].
In the case of `Nc1nonc1-n1nnc(C(=O)N/N=C/c2cc(Br)ccc2O)c1CNc1ccccc1`, the Potency is reported as inconclusive: 3.98 µM [inhibitor, single point].
For `COc1ccc(-n2c(SCC(=O)c3ccc(Cl)cc3)nc3c([nH]c4ccccc43)c2=O)cc1`, the Potency was inconclusive: 14.1 µM [activator, single point].
With `CNC(=O)CC1C(=O)N(c2ccc(Cl)cc2)C(=S)N1CCc1ccc(OC)c(OC)c1` (centres undefined) the Potency was inconclusive: 35.5 µM [inhibitor, partial curve, poor fit].
For `CC(=O)c1ccc(NC(=O)C2(S(=O)(=O)c3ccccc3)CC2)cc1`, the Potency was inconclusive: 6.31 µM [inhibitor, single point].
For `CCC(C(=O)Nc1c[nH]c(=O)[nH]c1=O)c1ccccc1` (centres undefined), the Potency was “inactive”.
For `CCCCc1c(C)c(C#N)c2nc3ccccc3n2c1Nc1c(C)n(C)n(-c2ccccc2)c1=O`, the Potency was “inactive”.
For `O=C(COC(=O)CCCc1nc2ccccc2s1)NC(=O)NCc1ccco1`, the Potency was “inactive”.
For `N=c1n(CCN2CCCC2)c2ccccc2n1CC(O)c1ccco1` (centres undefined), the Potency was inconclusive: 23.1 µM [inhibitor, single point].
With `Cc1cc(OC(C)C(=O)NNC(=O)Nc2ccc(F)cc2F)cc(C)c1Cl` (centres undefined) the Potency was inconclusive: 35.5 µM [inhibitor, single point].
In the case of `N#CC1=C(N)C(C#N)(C#N)C2(C(=O)Nc3ccccc32)C2CCCC=C12` (centres undefined), the Potency is reported as inconclusive: 32.6 µM [inhibitor, single point].
For `CCc1nc(Nc2ccc(OC)cc2OC)c2oc3ccccc3c2n1`, the Potency was inconclusive: 3.98 µM [inhibitor, full curve, poor fit].
For `CCc1cc2c(=O)[nH]c(N3CCCC3)nc2s1`, the Potency was inconclusive: 11.2 µM [activator, partial curve, poor fit].
In the case of `Cc1cccc(C=CC(=O)c2ccccc2)c1`, the Potency is reported as “inactive”.
For `CCc1c(C(=O)NNC(=O)Nc2ccc3c(c2)OCO3)csc1C`, the Potency was “inactive”.
For `Cc1ccc(CN2C3CCCC2CC(NC(=O)c2ccc(C)cc2)C3)cc1` (centres undefined), the Potency was inconclusive: 29.1 µM [inhibitor, single point].
In the case of `COc1cc(NS(=O)(=O)c2ccc3c(c2)CC(C)N3C(=O)C2CCC2)cc(OC)c1OC` (centres undefined), the Potency is reported as inconclusive: 11.2 µM [inhibitor, partial curve, poor fit].
In the case of `Cc1ccc(Nc2nc(NCC3CCCO3)nc(N)c2[N+](=O)[O-])cc1` (centres undefined), the Potency is reported as “inactive”.
With `C/C(=N\NC(=O)C1CC1c1ccccc1)c1ccc(C)s1` (centres undefined) the Potency was inconclusive: 0.164 µM [inhibitor, full curve, poor fit].
With `COc1ccc(C(CNc2ncnc3sccc23)N(C)C)cc1OC` (centres undefined) the Potency was inconclusive: 12.6 µM [activator, partial curve, poor fit].
In the case of `Cc1ccccc1Oc1nc2ccccn2c(=O)c1/C=C(\C#N)C(=O)Nc1c(C)n(C)n(-c2ccccc2)c1=O`, the Potency is reported as “inactive”.
In the case of `Cc1ccc2nc3sc(C(=O)N4CCOCC4)c(N)c3cc2c1`, the Potency is reported as inconclusive: 2.31 µM [inhibitor, full curve, poor fit].
With `COc1ccc2oc(C(=O)NCC(c3ccco3)N(C)C)c(C)c2c1` (centres undefined) the Potency was “inactive”.
With `Cc1cc(NC(=O)CSc2nc(-c3cccc(F)c3)nc3c2c(=O)n(C)c(=O)n3C)no1` the Potency was “inactive”.
For `Cc1[nH]n(-c2ccccc2)c(=O)c1/C=N/c1ccccn1`, the Potency was “inactive”.
With `CSc1ccccc1NC(=O)Nc1ccccc1Cl` the Potency was “inactive”.
For `COc1cccc2cc(C(=O)c3ccccc3)oc12`, the Potency was inconclusive: 12.6 µM [activator, single point].
For `O=C(CCl)Nc1cc(SCC(O)CO)cc([N+](=O)[O-])c1` (centres undefined), the Potency was inconclusive: 2 µM [inhibitor, full curve, poor fit].
In the case of `Cc1cccc(C)c1OCC(=O)N/N=C/c1cccn1C`, the Potency is reported as “inactive”.
For `Cc1ccc(-n2c(Cc3ccccc3)nnc2SCC(=O)NNC(=O)Cc2ccccc2)cc1`, the Potency was inconclusive: 3.26 µM [inhibitor, single point].
For `CCN(CC(=O)NCc1cccs1)C(=O)c1ccc(-c2cccc(C(F)(F)F)c2)o1`, the Potency was inconclusive: 15.8 µM [inhibitor, single point].
